From publication PMC6925144, “A prospective compound screening contest identified broader inhibitors for Sirtuin 1” (Scientific Reports, 2019)
The full ranking holds about 3,200 compounds; the median of “TSA(without NAD+) / Primary screening (TSA) / delta Tm (K)” is about -0.07, and the highest 2% start at about 0.37. The list shows a part of the results.

The chains behind the UniProt entries cited, without tags or fusion partners. Residues count along the entry.
UniProt Q96EB6, 2-747 limits assumed: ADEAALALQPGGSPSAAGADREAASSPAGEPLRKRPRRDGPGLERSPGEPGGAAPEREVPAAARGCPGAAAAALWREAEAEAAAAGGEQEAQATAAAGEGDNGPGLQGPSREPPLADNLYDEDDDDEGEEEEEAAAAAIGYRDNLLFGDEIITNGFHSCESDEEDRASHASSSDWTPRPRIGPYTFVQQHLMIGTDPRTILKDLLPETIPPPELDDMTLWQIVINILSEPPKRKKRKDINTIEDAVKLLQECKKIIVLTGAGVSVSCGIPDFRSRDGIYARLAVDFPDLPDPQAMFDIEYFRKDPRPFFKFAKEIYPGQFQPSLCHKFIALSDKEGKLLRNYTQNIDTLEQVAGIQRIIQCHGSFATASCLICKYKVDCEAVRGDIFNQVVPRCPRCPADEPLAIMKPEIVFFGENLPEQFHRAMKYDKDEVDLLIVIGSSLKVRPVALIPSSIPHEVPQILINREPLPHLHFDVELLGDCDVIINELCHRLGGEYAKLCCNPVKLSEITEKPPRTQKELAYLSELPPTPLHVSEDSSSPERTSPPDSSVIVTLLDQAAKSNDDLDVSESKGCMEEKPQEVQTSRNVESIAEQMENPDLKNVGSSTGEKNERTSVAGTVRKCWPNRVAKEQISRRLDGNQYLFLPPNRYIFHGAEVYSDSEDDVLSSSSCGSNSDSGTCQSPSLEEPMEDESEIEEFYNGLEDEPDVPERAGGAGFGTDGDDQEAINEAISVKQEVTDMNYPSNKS

target: NAD-dependent deacetylase Sirtuin 1 (human, UniProt Q96EB6); assay: primary screen, delta tm; parameters: single well (n = 1); details: 10 µM
Outline: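 Thermal shift of Sirtuin 1 measured without NAD+, compound at 10 µM (n = 1); value is ΔTm, with hits defined as ΔTm > 0.45 K or < −1.5 K. Hits retested at 5, 10, 20 µM (n = 4) and counterscreened on bovine carbonic anhydrase and ABL1 SH2 domain.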

Row | SMILES | TSA(without NAD+) / Primary screening (TSA) / delta Tm (K)
1 | CC1CCc2sc(C(=O)Nc3ccccc3Cc3ccccc3)cc2C1 (stereo not shown) | -0.04
2 | Cn1c(SCc2ccc(F)cc2)nc2ccsc2c1=O | -0.14
3 | Cc1noc2ncc(NC(=O)c3c[nH]nc3-c3ccccc3F)cc12 | -0.02
4 | COc1ccc(C2C(C(=O)c3ccco3)=C(O)C(=O)N2CCCN2CCOCC2)cc1 (stereo not shown) | 0.09
5 | O=c1cc(-c2ccccc2)c2ccc(OCCOc3ccc(Br)cc3)cc2o1 | 0.02
6 | CCCCc1ccc(/N=C/c2ccc3ncccc3c2)cc1 | -0.13
7 | Cc1onc(-c2ccc(F)cc2)c1C(=O)N1CCN(S(=O)(=O)c2ccc3c(c2)CCC3)CC1 | -0.13
8 | COc1ccc(CNC(=O)C(C)OC(=O)c2cc(S(=O)(=O)NC34CC5CC(CC(C5)C3)C4)ccc2Cl)cc1 (stereo not shown) | -0.05
9 | CC(CN)S(C)=O (stereo not shown) | -0.22
10 | O=C(CCCc1nc2ccccc2c(=O)[nH]1)N1CC2CC3CC(C2)CC1C3 | 0.02
11 | COc1ccc(NC(C)c2ccc(S(C)=O)cc2)cn1 (stereo not shown) | -0.18
12 | O=C(/C=C/c1ccc(F)cc1)NCCCn1ccc2ccccc21 | 0.08
13 | Cc1ccc(NC(=O)CCC2CCCO2)cc1I (stereo not shown) | -0.18
14 | CC(OC(=O)c1cc2c(s1)CCCC2)C(=O)Nc1ccc(C(N)=O)cc1 (stereo not shown) | -0.03
15 | Cc1cccc(NC(=O)COc2ccc3c4c(c(=O)oc3c2)CCC4)c1 | -0.01
16 | O=C(CN1CCCC1=O)Nc1cc(Br)c(F)cc1F | -0.04
17 | NCCCC[C@H](N)C(=O)O | -0.02
18 | CCOC(=O)c1ccc(S(=O)(=O)N2CCC(C(=O)OCC(=O)NCC34CC5CC(CC(C5)C3)C4)CC2)cc1 | -0.13
19 | CC1CCCCN1c1ncnc2c1cnn2-c1ccccc1 (stereo not shown) | 0.12
20 | O=C(Nc1ccc(N2CCN(Cc3ccccc3)CC2)cc1)c1cccc2cccnc12 | 0.07
21 | COC(=O)CCNc1ncnc2ccsc12 | -0.23

Row | SMILES | TSA(without NAD+) / Primary screening (TSA) / delta Tm (K)
22 | O=C(NC(c1ccccc1)c1ccccc1)c1ccc2ccccc2c1 | 0.03
23 | Cc1ccc(-c2nc(COC(=O)CN3C(=O)c4ccccc4C3=O)cs2)cc1 | -0.14
24 | CC(=O)NCCCN | -0.11
25 | O=C1NC(=O)c2ccccc2/C1=C\NCCCN1CCc2ccccc21 | -0.33
26 | CCNC(=O)c1ccc2[nH]c(C)c(C)c2c1 | -0.03
27 | Cc1ccc(N(C)S(=O)(=O)c2cccc(C(=O)Nc3cccc(C(=O)NC4CC4)c3)c2)cc1 | 0.06
28 | Cc1ccc(F)cc1C(=O)OCc1nc(C(C)C)ns1 | -0.24
29 | CNC(=O)CSc1nnc(-c2c[nH]c3ccccc23)n1Cc1ccco1 | -0.08
30 | O=C(NCc1ccc(S(=O)(=O)N2CCOCC2)s1)C1=COCCO1 | -0.04
31 | Cc1nc(C(=O)Nc2ccc(-c3cn4ccsc4n3)cc2)cs1 | -0.18
32 | COc1ccc(N(C)S(=O)(=O)c2cccc(C(=O)OCc3cc(=O)oc4cc(C)ccc34)c2)cc1 | 0.05
33 | OC1CCN(c2ncnc3c2oc2ccccc23)CC1 | 0.08
34 | Cn1ccnc1C(NC(=O)Cc1ccc(F)cc1)c1ccccc1F (stereo not shown) | -0.08
35 | CC1CN(S(=O)(=O)CCNC(=O)Nc2cc3c(cc2Cl)OCCO3)CC(C)O1 (stereo not shown) | -0.17
36 | O=C(CC12CC3CC(CC(O)(C3)C1)C2)Nc1cccc2c1CCCC2 | -0.08
37 | C[C@@H]1C[C@H]1N | -0.13
38 | COCC(O)CN (stereo not shown) | -0.07
39 | CC(=O)Nc1cc2ccccc2cc1C(=O)NC1CCOc2ccccc21 (stereo not shown) | -0.12
40 | Cc1ccc(-c2nn(-c3ccccc3)cc2C(=O)NCc2nnc3ccccn23)cc1 | -0.03
41 | O=C(CCc1ccc2c(c1)OCO2)N1CCc2[nH]c3ccccc3c2C1 | -0.15
42 | CCN(C(=O)CSc1nnc(-c2ccc3c(c2)OCO3)o1)C1CCS(=O)(=O)C1 (stereo not shown) | -0.23

Entries shown so far containing a furan ring, fused or not (3):
Row | SMILES | TSA(without NAD+) / Primary screening (TSA) / delta Tm (K)
4 | COc1ccc(C2C(C(=O)c3ccco3)=C(O)C(=O)N2CCCN2CCOCC2)cc1 (stereo not shown) | 0.09
29 | CNC(=O)CSc1nnc(-c2c[nH]c3ccccc23)n1Cc1ccco1 | -0.08
33 | OC1CCN(c2ncnc3c2oc2ccccc23)CC1 | 0.08

Remaining list, next part.

Row | SMILES | TSA(without NAD+) / Primary screening (TSA) / delta Tm (K)
43 | C=CCCCN | 0.06
44 | Cc1cc(NN)n2nc(C(F)(F)F)c(-c3ccc(Cl)cc3)c2n1 | 0.26
45 | O=C(c1ccc2[nH]c3c(c2c1)CCCC3)N1CC1 | -0.22
46 | O=C(O)CCCNc1ncnc2sc3c(c12)CCCC3 | -0.07
47 | CCN(C(=O)CSc1nnc(SCc2ccc(Cl)cc2)s1)C1CCS(=O)(=O)C1 (stereo not shown) | -0.08
48 | COc1c(C=C2C(=O)NC(=S)NC2=O)ccc2ccccc12 | -0.43
49 | Cc1nn2cccnc2c1C(=O)NCC1CC12CCc1ccccc12 (stereo not shown) | -0.22
50 | CN(C)S(=O)(=O)c1ccc(C(=O)C2=C(O)C(=O)N(CCN3CCOCC3)C2c2ccco2)cc1 (stereo not shown) | -0.14
51 | CC(NC(=O)c1occc1-c1ccc(F)cc1)c1ccc2c(c1)CCC(=O)N2 (stereo not shown) | -0.34
52 | Cc1cc(C)c2cc(C(=O)N3CCC(C(N)=O)CC3)[nH]c2c1 | -0.43
53 | CC1CCc2ccccc2N1C(=O)CSc1n[nH]c2nc3ccccc3n12 (stereo not shown) | -0.02
54 | Oc1ccc2ccccc2c1/C=N/c1ccc(F)c(F)c1 | 0.08
55 | CCS(=O)(=O)Nc1ccc(S(=O)(=O)Nc2nccs2)c(OC)c1 | -0.18
56 | CC(=O)NC1CCCN(c2nc3ccccc3cc2CO)C1 (stereo not shown) | -0.05
57 | COc1cccc(C2C(C(=O)/C=C/c3ccco3)=C(O)C(=O)N2CCCN2CCOCC2)c1 (stereo not shown) | -0.07
58 | Oc1cnc2ccccc2c1 | -0.18
59 | Cc1ccc(COC(=O)c2cccc3c2C(=O)c2ccccc2C3=O)cc1 | 0.27
60 | O=C(/C=C/c1ccccc1)C1=C(O)C(=O)N(CCCN2CCOCC2)C1c1ccc(Cl)cc1 (stereo not shown) | 0.12
61 | CCOC(=O)C1=C(C)NC(C)=C(C(=O)OCC)C1c1nc2ccccc2[nH]1 | -0.13
